No constants are given. Whether binding was seen depends on the method and setting. Binding seen in cells or lysates may run through a third protein. A yes stands for co-enrichment or nearness to the bait. Other partners may have been found.
T1: CCDC88B (mouse (endogenous in thymus, BI-141 T cells and BMDCs)) (UniProt Q4QRL3)
T1 sequence: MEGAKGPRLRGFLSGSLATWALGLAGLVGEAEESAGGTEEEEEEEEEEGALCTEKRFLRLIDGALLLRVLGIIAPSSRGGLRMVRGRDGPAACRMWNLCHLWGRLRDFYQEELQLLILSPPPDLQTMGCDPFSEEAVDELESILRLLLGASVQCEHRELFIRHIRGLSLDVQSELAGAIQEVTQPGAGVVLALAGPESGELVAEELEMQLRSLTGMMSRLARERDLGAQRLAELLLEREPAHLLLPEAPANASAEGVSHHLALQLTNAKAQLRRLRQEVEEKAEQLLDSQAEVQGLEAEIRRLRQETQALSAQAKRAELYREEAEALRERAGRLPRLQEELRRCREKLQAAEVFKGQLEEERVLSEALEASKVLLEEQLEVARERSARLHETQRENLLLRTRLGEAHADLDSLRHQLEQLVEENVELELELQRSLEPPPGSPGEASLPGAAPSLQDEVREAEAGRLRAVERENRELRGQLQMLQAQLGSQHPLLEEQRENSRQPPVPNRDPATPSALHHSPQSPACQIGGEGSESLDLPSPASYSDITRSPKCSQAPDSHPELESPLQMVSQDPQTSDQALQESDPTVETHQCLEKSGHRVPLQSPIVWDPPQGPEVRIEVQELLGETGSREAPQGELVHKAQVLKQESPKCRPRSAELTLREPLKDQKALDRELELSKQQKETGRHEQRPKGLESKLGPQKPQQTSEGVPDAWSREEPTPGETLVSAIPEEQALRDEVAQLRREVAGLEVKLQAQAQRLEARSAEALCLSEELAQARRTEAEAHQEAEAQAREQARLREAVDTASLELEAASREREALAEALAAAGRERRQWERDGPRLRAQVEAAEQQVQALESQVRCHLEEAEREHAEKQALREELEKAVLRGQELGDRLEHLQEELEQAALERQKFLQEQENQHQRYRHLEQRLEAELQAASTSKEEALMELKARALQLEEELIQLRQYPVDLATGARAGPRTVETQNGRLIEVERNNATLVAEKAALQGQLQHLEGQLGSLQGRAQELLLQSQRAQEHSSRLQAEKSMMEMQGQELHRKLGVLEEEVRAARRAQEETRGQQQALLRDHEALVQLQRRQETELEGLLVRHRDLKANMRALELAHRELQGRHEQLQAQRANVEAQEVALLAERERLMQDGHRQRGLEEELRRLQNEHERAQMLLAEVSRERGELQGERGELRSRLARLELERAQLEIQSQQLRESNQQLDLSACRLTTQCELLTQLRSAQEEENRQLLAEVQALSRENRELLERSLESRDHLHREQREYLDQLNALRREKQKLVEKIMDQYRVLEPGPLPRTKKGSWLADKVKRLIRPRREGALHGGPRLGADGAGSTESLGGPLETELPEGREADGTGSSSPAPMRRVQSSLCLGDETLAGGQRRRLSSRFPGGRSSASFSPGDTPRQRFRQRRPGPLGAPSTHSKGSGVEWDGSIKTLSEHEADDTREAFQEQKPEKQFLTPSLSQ


Experiments:
[1] = biological target: T1, CCDC88B (mouse (endogenous in thymus, BI-141 T cells and BMDCs)); assay: affinity purification with mass spectrometry; anti-CCDC88B anti-serum on Dynabeads M270 Epoxy; 200 mg cryo-milled mouse thymocytes; 20 mM HEPES pH 7.4, 0.5% Triton X-100, 200 mM NaCl; SDS-PAGE, nine Sypro-stained bands excised, LC-MS/MS
[2] = biological target: T1, CCDC88B (mouse (endogenous in thymus, BI-141 T cells and BMDCs)); assay: affinity purification with mass spectrometry; anti-CCDC88B co-immunoprecipitation from cryo-milled BI-141 T cells and mouse thymocytes, three lysis buffers, in triplicate, label-free quantitative LC-MS/MS, hits filtered and scored

| Binder | binding [1] | binding [2] |
| --- | --- | --- |
| RAS Protein Activator Like 3 (RASAL3) (protein, UniProt Q8C2K5 1-1041) MKPECGQTMFRTFWSRSRDSSAMDPPLQSEEDSQTQPSLPSPLTSYRWHTGGSGEKAAGGFRWGRFAGWGRALSHQEPMVNSQPAPRSLFRRVLSAPPKESRSNRLRFSKTLWGRHKNVAPLEPKPNPKAPEPELELVADPDLPVAQIPEPPTPDMPVWNIDGFTLLEGKLVMLGEEEGPRQIRVGSASSENSMQAALGNLKDAVRTPGKTEPEAAGSNQVHNVRKLLKRLKEKKRAKSELGAYTPRDGPPSALGSRESLATLSELDLGAERDVRVWPLHPSLLGEPYCFQVTWAGGSLCFSCRSSAERDRWIEDLRRQFQPSQDNVERQEMWLTVWVHEAKGLPRATVPGVRAELWLDGALLARTAPRAGPGQLFWAERFHFEALPPARRLSLRLRSAGPAGATVGRVVLELDEVSIPRAPAAGLERWFPVLGAPAGAVLRARIRVRCLRVLPSERYKELAEFLTFHYARLCGALEPALSAQAKEELAAAMVRVLRATGRAQALVTDLGTAELARCGGREALLFRENTLATKAIDEYMKLVAQEYLQDTLGQVVRCLCASTEDCEVDPSKCPTPELPKHQARLRDSCEEVFENIIHSYNCFPAELGSVFSSWREACKARGSEALGPRLVCASLFLRLLCPAILAPSLFGLAPEHPAPGPARTLTLIAKVIQNLANCAPFGEKEAYMAFMNSFLEDHGPAMQHFLDQVATVDADTTPSGYQGSGDLALQLAVLHVQLCTIFAELDQKTQDSLEPLPTILRAIEEGRPVPVSVPMRLPRISTQVQSSFFSGEKPGFLAPRDLPKHTPLISKSQSLRSFQGAGSWASRRPDEERPQRRPRPVLRTQSVPARRPTHRRPSAGSKPRPKGSLRMGPAPCGRAWTRASASLPRKPSVPWQRQMDQPGDRYQTTGTHRPVGKLAEIQCEVAIFREAQKALSLLVESLSTQVQALKEQQEHFRCQLQDLYSRLGAGISKLDSKGGLPSNGSHRLKSLEQRLTEMECSQDQLRDSLQSLQLLSKTPGSRSQPLPLKAPCVNGADLSMGT | binds | binds |
| Rho/Rac Guanine Nucleotide Exchange Factor 2 (ARHGEF2) (protein, UniProt Q60875 1-985) MSRIESLTRARIDRSKEQATKTREKEKMKEAKDARYTNGHLFTTISVSGMTMCYACNKSITAKEALICPTCNVTIHNRCKDTLANCTKVKQKQQKAALLRNNTALQSVSLRSKTTTRERPTSAIYPSDSFRQSLLGSRRGLSSLSLAKSVSTTNIAGHFNDESPLGLRQILSQSTDSLNMRNRTLSVESLIDEGVEVFYNELMSDFEMDEKDFEADSWSLAVDSSFLQQHKKEVMKKQDVIYELIQTELHHVRTLKIMTRLFRTGMLEELQMEPEVVQGLFPCVDELSDIHTRFLNQLLERRRQALCPGSTRNFVIHRLGDLLISQFSGSNAEQMRKTYSEFCSRHTKALKLYKELYARDKRFQQFIRKMTRSAVLKRHGVQECILLVTQRITKYPVLINRILQNSHGVEEEYQDLASALGLVKELLSNVDQDVHELEKEARLQEIYNRMDPRAQTPVPGKGPFGRDELLRRKLIHEGCLLWKTATGRFKDVLLLLMTDVLVFLQEKDQKYIFTSLDKPSVVSLQNLIVRDIANQAKGMFLISSGPPEMYEVHAASRDDRTTWIRVIQQSVRLCPSREDFPLIETEDKAYLRRIKTKLQQKNQALVELLQKNVELFAEMVHFQALKAGFVGMPPPALPRGLFRLESFESLRGERLLKDALREVEGLKDLLLGPCVDLPMTSREPALPLDSDSGSCPGVTANGEARTFNGSIELCRADSDSSQKDRNGNQLRSPQEEVLQPLINLYGLLHGLQAVVVQQERLMEALFPEGPERWEKLSRANSRDGEAGRAAVASVTPEKQATELALLQRQHTLLQEELRRCQRLGEERATEAGSLEARLRESEQARALLEREAEEIRRQLAALGQNEPLPAEAPWARRPLDPRRRSLPAGDALYLSFNPPQPSRGHDRLDLPVTVRSLHRPFDDREAQELGSPEDRLQDSSDPDTGSEEEVSSRLSPPHSPRDFTRMQDIPEETESRDGEPTASES | binds | – |
| Nucleoporin 160 (NUP160) (protein, UniProt Q9Z0W3 1-1402) MAAAGSLERSFVELSGAERERPRHFREFTVCDIGTASAAFGTVKYSESAGGFYYVESGKLFSITRNRFIHWKTSGDTLELVEESLDLNLLNNAVRLKFQNYNILPGGVHVSETQNHVIILILTNQTVHRLILPHPSRMYRSELVTESQMQSIFTDIGKVDFRDPCNSQLIPSVPGLSPGSTTSAAWLSSDGEALFALPSASGGIFVLKLPPYDVPGIASVVELKQSSVMQRLLTGWMPTAIRGDHGPSDRALSLAVHCVEHDAFIFALCQDHKLRMWSYKDQMCLMVADMLEYVPVNKDLRLTAGTGHKLRLAYSPSMGLYLGIYMHAPKRGQFCVFQLVSTENNRYSLDHISSLFTSQETLVDFALTSTDIWALWHDAENQTIVKYINFEHNVAGQWNPVFMQPLPEEEIVIRDDQDPREMYLRSLFTPGHFINAALCKALQIFCRGTERNLDLSWNELKKEITLAVENELQGSVTEYEFSQDEFRTLQQEFWCKFYACVLQYQEALSHPLALHLNPVTNMVCLLKKGYLSFLVPSSLVDHLYLLPDEHLLTEDETTISDDADVARDVLCLIKCLRMIGESVTMDMAVLMETSCYNLQSPEKAAEHILEDLITIDVENVMEDICSKLQEIRNPVHAIGLLIREMDYETEVEMEKGFDPAQPLNVRMNLSQLYGSSTAGYIVCRGVYKIASTRFLICRDLLILQQLLTRLGDAVILGAGQLFQAQQDLLHRTAPLLLSYYLIKWASQCLATDVPVDTLESNLQHLSVLELTDSGALMANKLVSSPQTIMELFFQEVARKQIISHLFSQPKAPLSQTGLNWPEMITAVTGYLLQLLWPSNPGCLFLECLMGNCQYVQLQDYIQLLHPWCQVNVGSCRFMLGRCYLVTGEVQKALECFCQAASEVGKEEFLDRLIRSEDGEIVSTPKLQYYDKVLRLLDVVGLPELVIQLATSAITEAGDDWKSQATLRTCIFKHHLDLGHNSQAYEALTQIPDSSRQLDCLRQLVVVLCERSQLQDLVEFPYVNLHNEVVGIIESRARAVDLMTHNYYELLYAFHIYRHNYRKAGTVMFEYGMRLGREVRTLRGLEKQGNCYLAAINCLRLIRPEYAWIVQPASGAVSDRPGASPKRNHDGECTAAPTNRQIEILELEDLEKEYSLARIRLTLARHDPSVIAIAGSSSAKEMSALLVQAGLFDTAISLCQTFTLPLTPVFEGLAFKCIKLQFGGEAAQGEAWSWLATNQLSSVITTKESSATDEAWRLLSTYLERYKVQNNLYHHCVINKLLSHGVPLPNWLINSYKKVDAAELLRLYLNYDLLEEAVDLVSEYVDAVLGKGHQYFGIEFPLSATAPMVWLPYSSIDQLLQALGENSANSHNIILSQKILDKLEDYQQKVDKATRDLLYRRDL | binds | – |

Reference: article PMC10781698
